# PubChem BioAssay AID1259308 – NCATS, 2017
# Aim: 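Candidate targets for better recombinant protein yield in mammalian cells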 (primary screen)
# Cell system: human HEK293 embryonic kidney cells stably expressing firefly luciferase (HEK-CMV-Luc2-Hygro)
# Reagent: single siRNA against human genes, 0.8 pmol siRNA per well
# Time to read-out: 72 h
# Measurement: 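Reporter luminescence and viable-cell signal on separate replicate plates, given as percent of non-targeting control and median/MAD z-scores, plus per-cell luciferase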
# Direction: total luciferase, z-score and total luciferase, % of control: higher = more reporter protein produced; luciferase per cell, z-score: higher = more reporter output per viable cell; viable cells, % of control: higher = more viable cells
# Call rule: 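Active when the median/MAD z-score for overall luciferase is greater than 3; a gene was taken forward for validation with new siRNAs if at least two of its three siRNAs passed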
# Calls: active = raised luciferase; inactive = no rise
# Here is one part, drawn at random, of about 59,000 reagents. Over the whole deposit, about 1,510 (2.6%) are marked active. 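Calls use total luciferase alone and ignore viability, so some active siRNAs may act by altering cell number.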 Reagents against one gene are numbered here. Reagent sequences are not shown.
gene symbol,reagent no.,"total luciferase, z-score","total luciferase, % of control","luciferase per cell, z-score","viable cells, % of control",Call
TIPARP (TCDD inducible poly(ADP-ribose) polymerase),1,-0.477,72.4,-0.86,101,inactive
TIPARP (TCDD inducible poly(ADP-ribose) polymerase),2,2.16,125,1.02,107,inactive
TIPARP (TCDD inducible poly(ADP-ribose) polymerase),3,-0.949,63,-0.907,89.4,inactive
MAGEB2 (MAGE family member B2),1,1.07,103,0.943,89.9,inactive
MAGEB2 (MAGE family member B2),2,1.27,107,0.624,102,inactive
MAGEB2 (MAGE family member B2),3,0.401,89.9,0.191,95.5,inactive
AQP9 (aquaporin 9),1,-1.55,51,-0.423,63.7,inactive
AQP9 (aquaporin 9),2,-0.0246,81.4,-0.55,105,inactive
AQP9 (aquaporin 9),3,0.443,90.7,-0.415,113,inactive
TBC1D26 (TBC1 domain family member 26),1,1.05,103,1.86,70.4,inactive
TBC1D26 (TBC1 domain family member 26),2,4.58,173,3.12,85.1,active
TBC1D26 (TBC1 domain family member 26),3,0.971,101,0.311,104,inactive
F10 (coagulation factor X),1,-1.19,58.3,-0.631,76.9,inactive
F10 (coagulation factor X),2,-0.954,62.9,-1.32,99.6,inactive
F10 (coagulation factor X),3,0.933,100,0.343,103,inactive

Called active (from the list above):
gene symbol,reagent no.,"total luciferase, z-score","total luciferase, % of control","luciferase per cell, z-score","viable cells, % of control",Call
TBC1D26 (TBC1 domain family member 26),2,4.58,173,3.12,85.1,active

The listing continues.
gene symbol,reagent no.,"total luciferase, z-score","total luciferase, % of control","luciferase per cell, z-score","viable cells, % of control",Call
LRRC3C (leucine rich repeat containing 3C),1,2.32,128,1.48,97,inactive
LRRC3C (leucine rich repeat containing 3C),2,3.85,159,2.71,86.8,active
LRRC3C (leucine rich repeat containing 3C),3,0.281,87.5,0.0408,96.7,inactive
WDR54 (WD repeat domain 54),1,-1.37,54.6,-1.28,85.5,inactive
WDR54 (WD repeat domain 54),2,0.0412,82.7,-0.359,102,inactive
WDR54 (WD repeat domain 54),3,0.729,96.4,-0.153,112,inactive
LPAR2 (lysophosphatidic acid receptor 2),1,-1.28,56.4,-0.764,77.1,inactive
LPAR2 (lysophosphatidic acid receptor 2),2,0.112,84.1,0.234,88.4,inactive
LPAR2 (lysophosphatidic acid receptor 2),3,-0.0952,80,-0.819,111,inactive
